In the supplement of paper PMC10331698:
± gives the standard deviation of the averaged measurements. Most values lie at the level of the controls, where differences are scatter.

Legend:
Test in all cases: level (log10 ratio to DMSO vehicle control); higher = higher biomarker level / cell amount than vehicle control
[1] = compound: OCCC(F)(F)C(F)(F)C(F)(F)C(F)(F)C(F)(F)C(F)(F)F [6:2 Fluorotelomer alcohol]; settings: 2200 nM; in DMSO
Experimental: (§1)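 BioMAP Diversity Plus panel of 12 human primary cell co-culture systems (3C, 4H, LPS, SAg, BT, BF4T, BE3C, CASM3C, HDF3CGF, KF3CT, MyoF, Mphg). Compounds were added 1 h before stimulation and left for 24 h (MyoF 48 h; BT 72 h for soluble read-outs or 6 d for IgG). Biomarkers were read by ELISA, cytotoxicity by SRB, PBMC viability and proliferation by Alamar Blue. Each well value was divided by the mean of 8 DMSO control wells on the same plate and log10 transformed; duplicate blinded samples were tested at 4 concentrations.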

[2] = compound: CN(C(=O)C(F)(F)C(F)(F)C(F)(F)F)[Si](C)(C)C [N-Methyl-N-trimethylsilylheptafluorobutyramide]; settings: 2200 nM; in DMSO
Experimental: as §1

[3] = compound: NC(=O)C(F)(F)C(F)(F)C(F)(F)F [Heptafluorobutyramide]; settings: 2200 nM; in DMSO
Experimental: as §1

[4] = compound: CCCCCCCCC(F)(F)C(F)(F)C(F)(F)C(F)(F)C(F)(F)C(F)(F)F [1-(Perfluorohexyl)octane]; settings: in DMSO
Experimental: as §1

[5] = compound: FC(F)(F)C(F)(F)C(F)(F)C(F)(F)C(F)(F)C(F)(F)CC1CO1 [3-(Perfluorohexyl)-1,2-epoxypropane]; settings: 2200 nM; in DMSO
Experimental: as §1

[6] = compound: CCN(CCO)S(=O)(=O)C(F)(F)C(F)(F)C(F)(F)C(F)(F)C(F)(F)C(F)(F)C(F)(F)C(F)(F)F [N-Ethyl-N-(2-hydroxyethyl)perfluorooctanesulfonamide]; settings: in DMSO
Experimental: as §1

[7] = compound: NCC(F)(F)C(F)(F)C(F)(F)C(F)(F)C(F)(F)C(F)(F)C(F)(F)F [1H,1H-Perfluorooctylamine]; settings: 2200 nM; in DMSO
Experimental: as §1

[8] = compound: Cc1ccc(S(=O)(=O)OCC(F)(F)C(F)(F)C(F)(F)C(F)(F)C(F)(F)C(F)F)cc1 [1H,1H,7H-Perfluoroheptyl 4-methylbenzenesulfonate]; settings: 2200 nM; in DMSO
Experimental: as §1

[9] = compound: OCC(F)(F)C(F)(F)C(F)(F)F [1H,1H-Heptafluorobutanol]; settings: 2200 nM; in DMSO
Experimental: as §1

[10] = compound: O=C(O)C(F)(F)C(F)(F)C(F)(F)C(F)(F)C(F)(F)C(F)(F)C(F)(F)C(F)(F)C(F)(F)C(F)F [11-H-Perfluoroundecanoic acid]; settings: 2200 nM; in DMSO
Experimental: as §1

[11] = compound: O=C(O)C(F)(F)C(F)(F)C(F)(F)OC(F)(F)F [Perfluoro(4-methoxybutanoic) acid]; settings: 2200 nM; in DMSO
Experimental: as §1

[12] = compound: O=C(O)C(F)(F)C(F)(F)C(F)(F)C(F)(F)C(=O)O [Octafluoroadipic acid]; settings: 2200 nM; in DMSO
Experimental: as §1

[13] = compound: O=S(=O)(O)CCC(F)(F)C(F)(F)C(F)(F)C(F)(F)C(F)(F)C(F)(F)C(F)(F)C(F)(F)F [8:2 Fluorotelomer sulfonic acid]; settings: in DMSO
Experimental: as §1

[14] = compound: O=C(O)C(F)(F)C(F)(F)C(F)(F)C(F)(F)C(F)(F)C(F)(F)F [Perfluoroheptanoic acid]; settings: in DMSO
Experimental: as §1

[15] = compound: CC(C)(C)C(=O)CC(=O)C(F)(F)C(F)(F)C(F)(F)F [(Heptafluorobutanoyl)pivaloylmethane]; settings: 2200 nM; in DMSO
Experimental: as §1

[16] = compound: O=C(O)C(F)(F)C(F)(F)C(F)(F)C(F)(F)F [Perfluoropentanoic acid]; settings: in DMSO
Experimental: as §1

Row | Test System | level (log10) [1] | level (log10) [2] | level (log10) [3] | level (log10) ([4]; 740 nM) | level (log10) ([4]; 2200 nM) | level (log10) [5] | level (log10) ([6]; 2200 nM) | level (log10) ([6]; 6700 nM) | level (log10) ([6]; 20000 nM) | level (log10) [7] | level (log10) [8] | level (log10) [9] | level (log10) [10] | level (log10) [11] | level (log10) [12] | level (log10) ([13]; 2200 nM) | level (log10) ([13]; 6700 nM) | level (log10) ([13]; 20000 nM) | level (log10) ([13]; 60000 nM) | level (log10) ([14]; 2200 nM) | level (log10) ([14]; 6700 nM) | level (log10) ([14]; 20000 nM) | level (log10) ([14]; 60000 nM) | level (log10) [15] | level (log10) ([16]; 2200 nM) | level (log10) ([16]; 6700 nM) | level (log10) ([16]; 20000 nM) | level (log10) ([16]; 60000 nM)
1 | lMphg:CD69 | -0.0225 ± 0.081 | 0 ± 0.02 | -0.012 ± 0.027 | -0.0475 ± 0.037 | -0.044 ± 0.054 | -0.0075 ± 0.032 | -0.0095 ± 0.035 | -0.0715 ± 0.012 | -0.129 ± 0.0099 | 0 ± 0.011 | -0.035 ± 0.033 | -0.045 ± 0.044 | -0.0405 ± 0.028 | 0.0425 ± 0.05 | -0.0145 ± 0.094 | -0.0365 ± 0.036 | -0.0695 ± 0.023 | -0.059 ± 0.0028 | -0.173 ± 0.025 | -0.0045 ± 0.042 | -0.019 ± 0.038 | -0.021 ± 0.041 | -0.0205 ± 0.064 | -0.0095 ± 0.021 | -0.008 ± 0.028 | -0.0315 ± 0.0092 | -0.0525 ± 0.013 | 0.0175 ± 0.077
2 | lMphg:CD106/VCAM-1 | -0.006 ± 0.0071 | -0.03 ± 0.0071 | 0 | -0.0485 ± 0.083 | -0.0345 ± 0.061 | 0.013 ± 0.013 | -0.01 ± 0.0028 | -0.037 ± 0.03 | -0.0435 ± 0.035 | -0.0045 ± 0.011 | -0.0365 ± 0.07 | 0.0185 ± 0.0021 | -0.017 ± 0.014 | -0.0165 ± 0.033 | -0.0185 ± 0.005 | -0.0125 ± 0.0021 | -0.0355 ± 0.005 | -0.042 ± 0.0071 | -0.08 ± 0.0057 | 0.007 ± 0.013 | -0.0115 ± 0.005 | 0.001 ± 0.0014 | -0.0095 ± 0.032 | -0.016 ± 0.018 | -0.0055 ± 0.0064 | 0.005 ± 0.02 | 0.0125 ± 0.018 | 0.016 ± 0.0057
3 | lMphg:CXCL8/IL-8 | -0.0125 ± 0.086 | 0.0075 ± 0.022 | 0.0235 ± 0.093 | 0.004 ± 0.013 | 0.0015 ± 0.016 | 0.0185 ± 0.035 | 0.0125 ± 0.0021 | -0.047 ± 0.048 | -0.032 ± 0.016 | 0.044 ± 0.071 | 0.0225 ± 0.046 | 0.022 ± 0.018 | 0.0165 ± 0.067 | 0.032 ± 0.11 | -0.0035 ± 0.016 | -0.03 ± 0.0028 | 0.001 ± 0.0085 | 0.022 ± 0.013 | 0.0775 ± 0.0035 | 0.0055 ± 0.074 | -0.0125 ± 0.0035 | 0.032 ± 0.0042 | 0.18 ± 0.035 | 0.007 ± 0.02 | -0.03 ± 0.031 | 0.005 ± 0.031 | -0.0275 ± 0.013 | 0.044 ± 0.064
4 | lMphg:IL-1alpha | 0.0265 ± 0.026 | 0.0065 ± 0.087 | -0.013 ± 0.011 | 0.009 ± 0.035 | -0.0295 ± 0.016 | -0.0075 ± 0.032 | -0.0115 ± 0.059 | -0.018 ± 0.054 | -0.0235 ± 0.018 | 0.035 ± 0.041 | 0.0005 ± 0.042 | 0.0265 ± 0.032 | -0.02 ± 0.03 | 0.019 ± 0.041 | -0.007 ± 0.033 | -0.0065 ± 0.059 | -0.019 ± 0.014 | -0.011 ± 0.028 | -0.035 ± 0.05 | -0.0145 ± 0.005 | -0.0275 ± 0.042 | -0.0025 ± 0.0035 | 0.0145 ± 0.012 | 0.0225 ± 0.0092 | -0.016 ± 0.02 | -0.0095 ± 0.022 | -0.0195 ± 0.046 | 0.01 ± 0.05
5 | lMphg:M-CSF | 0.008 ± 0.014 | -0.012 ± 0.034 | 0.0075 ± 0.044 | -0.016 ± 0.0099 | 0.012 ± 0.013 | -0.0075 ± 0.012 | -0.0065 ± 0.012 | -0.001 ± 0.0057 | 0.0105 ± 0.0035 | -0.0265 ± 0.023 | -0.016 ± 0.0099 | 0.007 ± 0.013 | 0.0035 ± 0.022 | 0.0125 ± 0.033 | 0.0005 ± 0.015 | -0.007 ± 0.011 | -0.0075 ± 0.033 | -0.014 ± 0.013 | 0.012 | 0.013 ± 0.024 | -0.006 ± 0.0014 | -0.001 ± 0.016 | 0.005 ± 0.0071 | -0.033 ± 0.069 | -0.016 ± 0.033 | -0.028 ± 0.045 | 0.006 ± 0.035 | 0.0095 ± 0.049
6 | lMphg:SRB | -0.0135 ± 0.012 | 0.002 | 0.0045 ± 0.005 | -0.007 ± 0.0071 | 0.002 ± 0.0085 | 0.014 ± 0.0085 | -0.0225 ± 0.032 | -0.0215 ± 0.0078 | -0.0435 ± 0.022 | -0.017 ± 0.014 | -0.0095 ± 0.0021 | -0.0095 ± 0.0064 | 0.0055 ± 0.0078 | -0.0155 ± 0.011 | 0.001 ± 0.0071 | -0.0125 ± 0.0092 | -0.006 ± 0.02 | -0.013 ± 0.017 | -0.029 ± 0.0057 | -0.003 ± 0.0057 | -0.013 ± 0.02 | -0.01 ± 0.0028 | -0.002 ± 0.0014 | -0.006 ± 0.0071 | -0.0005 ± 0.018 | -0.0125 ± 0.0035 | -0.0065 ± 0.0092 | 0.01 ± 0.018
7 | lMphg:SRB-Mphg | 0.0055 ± 0.042 | 0.0275 ± 0.021 | -0.0095 ± 0.015 | 0.0405 ± 0.011 | -0.0075 ± 0.028 | 0.0105 ± 0.015 | 0.002 ± 0.018 | 0.0095 ± 0.00071 | 0.001 ± 0.021 | -0.005 ± 0.011 | 0.022 ± 0.013 | 0.02 ± 0.023 | 0.006 ± 0.0014 | 0.014 ± 0.017 | 0.005 ± 0.0057 | 0.006 ± 0.028 | 0.003 ± 0.0028 | -0.012 ± 0.014 | -0.027 ± 0.013 | 0.009 ± 0.013 | -0.003 ± 0.014 | 0.005 ± 0.0071 | 0.004 ± 0.0042 | 0.0055 ± 0.029 | 0.003 ± 0.047 | -0.0125 ± 0.022 | 0.001 ± 0.0071 | 0.006 ± 0.017
8 | lMphg:sIL-10 | -0.05 ± 0.082 | -0.001 ± 0.045 | -0.025 ± 0.071 | 0.021 ± 0.072 | 0.005 ± 0.075 | -0.0195 ± 0.074 | -0.0075 ± 0.03 | 0 ± 0.024 | -0.0505 ± 0.028 | -0.0555 ± 0.074 | -0.079 ± 0.068 | -0.0115 ± 0.069 | -0.0895 ± 0.035 | 0.0415 ± 0.023 | -0.042 ± 0.052 | -0.0705 ± 0.12 | -0.078 ± 0.024 | -0.216 ± 0.0057 | -0.6535 ± 0.0064 | -0.0045 ± 0.0035 | -0.017 ± 0.018 | 0.007 ± 0.027 | -0.0945 ± 0.032 | -0.0375 ± 0.097 | 0.02 ± 0.03 | -0.017 ± 0.013 | -0.075 ± 0.025 | -0.0845 ± 0.05

Some of the entries so far, as comma-separated lines:
Row,Test System,level (log10) [1],level (log10) [2],level (log10) [3],level (log10) ([4]; 740 nM),level (log10) ([4]; 2200 nM),level (log10) [5],level (log10) ([6]; 2200 nM),level (log10) ([6]; 6700 nM),level (log10) ([6]; 20000 nM),level (log10) [7],level (log10) [8],level (log10) [9],level (log10) [10],level (log10) [11],level (log10) [12],level (log10) ([13]; 2200 nM),level (log10) ([13]; 6700 nM),level (log10) ([13]; 20000 nM),level (log10) ([13]; 60000 nM),level (log10) ([14]; 2200 nM),level (log10) ([14]; 6700 nM),level (log10) ([14]; 20000 nM),level (log10) ([14]; 60000 nM),level (log10) [15],level (log10) ([16]; 2200 nM),level (log10) ([16]; 6700 nM),level (log10) ([16]; 20000 nM),level (log10) ([16]; 60000 nM)
2,lMphg:CD106/VCAM-1,-0.006 ± 0.0071,-0.03 ± 0.0071,0,-0.0485 ± 0.083,-0.0345 ± 0.061,0.013 ± 0.013,-0.01 ± 0.0028,-0.037 ± 0.03,-0.0435 ± 0.035,-0.0045 ± 0.011,-0.0365 ± 0.07,0.0185 ± 0.0021,-0.017 ± 0.014,-0.0165 ± 0.033,-0.0185 ± 0.005,-0.0125 ± 0.0021,-0.0355 ± 0.005,-0.042 ± 0.0071,-0.08 ± 0.0057,0.007 ± 0.013,-0.0115 ± 0.005,0.001 ± 0.0014,-0.0095 ± 0.032,-0.016 ± 0.018,-0.0055 ± 0.0064,0.005 ± 0.02,0.0125 ± 0.018,0.016 ± 0.0057
4,lMphg:IL-1alpha,0.0265 ± 0.026,0.0065 ± 0.087,-0.013 ± 0.011,0.009 ± 0.035,-0.0295 ± 0.016,-0.0075 ± 0.032,-0.0115 ± 0.059,-0.018 ± 0.054,-0.0235 ± 0.018,0.035 ± 0.041,0.0005 ± 0.042,0.0265 ± 0.032,-0.02 ± 0.03,0.019 ± 0.041,-0.007 ± 0.033,-0.0065 ± 0.059,-0.019 ± 0.014,-0.011 ± 0.028,-0.035 ± 0.05,-0.0145 ± 0.005,-0.0275 ± 0.042,-0.0025 ± 0.0035,0.0145 ± 0.012,0.0225 ± 0.0092,-0.016 ± 0.02,-0.0095 ± 0.022,-0.0195 ± 0.046,0.01 ± 0.05
